From US20210087159A1, “TETRAHYDROCANNABINOLIC- CA[…] DERIVATIVES AND USES THEREOF” (AL&AM […]., priority 2018, published 2021)
“Also recorded” adds a separate entry of the source. At least one structure is not confirmed: it was looked up by name or label, or the drawing left a doubt.

System: TNF-α
Experiment: LPS induced cytokine release assay, TNF-α by ELISA in PBMCs
Assay type: cell-based
Conditions: tested concentrations of 1 M and 10 M (so in the source), human PBMCs
Excerpt: This study was aimed to test the effect of 12 compounds (THCA, Ia1, Ia5, Ia6, Ia9, Ia11, Ia15, Ia17, Ia24, Ia25, Ia27, and Ia28) on human peripheral blood mononuclear cells (PBMCs) challenged by lipopolysaccharide (LPS) through monitoring multiple inflammatory endpoints.
Blood samples were collected from healthy volunteers according to protocols that have been reviewed and approved by the Chempartner Institutional Ethic Committee (IEC) upon signing an Informed Consent Form (ICF).
Fresh PBMCs were isolated and seeded into 96-well plate, and diluted solutions of the tested compounds and 0.1 μg/mL LPS were then added (in triplicates). To serve as control, 3 wells with PBMCs only, 3 wells with 0.1 μg/mL LPS, and 2 wells with 1 μg/mL dexamethasone (Dex) and 0.1 μg/mL LPS were included. After 72 hours incubation, supernatant was collected for tumor necrosis factor-α (TNF-α) measurement by enzyme-linked immunosorbent assay (ELISA), and cell pellets were harvested for cell proliferation measurement by CellTiter-Glo® Luminescent Cell Viability Assay (CTG).
The human blood sample from an individual donor was diluted by the same volume of sterile phosphate buffered solution (PBS) and mixed sufficiently by gentle shake. […]
LPS (0.1 μg/mL, 100 μL) was added into each well. […] Cell proliferation was detected by CTG.

SMILES: CCCCCc1cc2c(c(O)c1C(N)=O)[C@@H]1C=C(C)CC[C@H]1C(C)(C)O2 [Ia1, (6aR,0aR)-1-hydroxy-6,6,9-trimethyl-3-pentyl-6a,7,8,10a-tetrahydro-6H-benzo[c]chromene-2-carboxamide]
- change of TNF-α expression in LPS-treated cells: decreased TNF-α expression; also recorded: rather pronounced suppression of TNF-α
